Measurements reported in PubChem BioAssay AID602196 (INSERM, 2012).
This is a random part of about 23,000 deposited reagents. 455 of all reagents (2%) were called active. 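Active includes both protection and sensitisation; some change values fall well beyond the stated -50 to +50 range.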 The record does not give: the amount of reagent.

Purpose: 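Modifiers of cisplatin sensitivity in A549 cells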
Cells: human A549 lung cancer cells
Reagents: siRNA pair against human genes
Duration: 48 h transfection before cisplatin; time from cisplatin to read-out not stated
Treatment: cisplatin at a dose killing half of control-siRNA cells; exact dose and duration not given
Read-out: 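Shift in cisplatin death relative to control siRNA, from -50 (all cells die) to +50 (no cells die); siRNAs harmful on their own scored 0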
Direction: two-siRNA summed score (-2 to +2): higher = both siRNAs protect from cisplatin killing; -2 means both sensitise; mean protection from cisplatin (shift in death) and protection from cisplatin (shift in death), siRNA C and protection from cisplatin (shift in death), siRNA D: higher = protection from cisplatin killing
Hit rule: 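siRNAs harmful alone (LDH or WST-1) get 0; others get +1 for less and -1 for more cisplatin killing; genes are active when the two siRNAs give the same sign, summing to ±2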
Calls: active = both siRNAs shift cisplatin killing the same way; inactive = no consistent shift, or siRNA harmful alone

Gene,two-siRNA summed score (-2 to +2),mean protection from cisplatin (shift in death) (%),"protection from cisplatin (shift in death), siRNA C (%)","protection from cisplatin (shift in death), siRNA D (%)",outcome
CNPPD1,0,4.2,11.7,-3.3,inactive
SPRNP1,0,-0.1,15.9,-16.1,inactive
JUN,0,-8.5,-3.9,-13.1,inactive
LOC197049,1,10.5,2.1,18.9,inactive
KRT75,0,-2.9,-5.1,-0.7,inactive
NHP2,0,3.8,1.1,6.6,inactive
ZNF480,0,8.3,7.5,9.1,inactive
MED12L,0,4.9,8.6,1.2,inactive
MATR3,1,8.3,7.8,8.8,inactive
LOC400965 (retired record),0,8.7,10.5,7,inactive
GLT6D1,0,-0.3,7.1,-7.7,inactive
KPNA3,0,14.7,15.2,14.1,inactive
OR2L13,0,0.5,1.5,-0.4,inactive

3 entries already listed, arranged by “protection from cisplatin (shift in death), siRNA D (%)”, lowest first.
Gene,two-siRNA summed score (-2 to +2),mean protection from cisplatin (shift in death) (%),"protection from cisplatin (shift in death), siRNA C (%)","protection from cisplatin (shift in death), siRNA D (%)",outcome
GLT6D1,0,-0.3,7.1,-7.7,inactive
LOC400965 (retired record),0,8.7,10.5,7,inactive
KPNA3,0,14.7,15.2,14.1,inactive

Additional entries follow:
Gene,two-siRNA summed score (-2 to +2),mean protection from cisplatin (shift in death) (%),"protection from cisplatin (shift in death), siRNA C (%)","protection from cisplatin (shift in death), siRNA D (%)",outcome
CKS2,0,11.3,9.2,13.3,inactive
DAP,-1,-5.9,-19.6,7.8,inactive
LOC442747,1,11.8,7,16.7,inactive
HES2,0,14.5,28.2,0.8,inactive
DEFA1,1,6.5,29.4,-16.5,inactive
ADGRG1,0,-3.3,-9.9,3.3,inactive
SYT15,0,-6.6,-8.2,-5,inactive
MCOLN3,0,16.9,15.9,18,inactive
LOC441346,0,5.2,4.9,5.6,inactive
LOC345462,1,17.9,14.1,21.6,inactive
